This assay deals with EAAT2-FLAG (excitatory amino acid transporter 2, FLAG-tagged) (human) (UniProt P43004). Kind of assay: affinity purification with mass spectrometry; EAAT2-FLAG precipitated with FLAG antibody from HEK293 cells, SDS-PAGE, digested, MS; ion score greater than 300 taken as high-confidence.

Amino acid sequences for entries named in this document (tags omitted). Residues count along the entry.
UniProt P43004, residues 10-574: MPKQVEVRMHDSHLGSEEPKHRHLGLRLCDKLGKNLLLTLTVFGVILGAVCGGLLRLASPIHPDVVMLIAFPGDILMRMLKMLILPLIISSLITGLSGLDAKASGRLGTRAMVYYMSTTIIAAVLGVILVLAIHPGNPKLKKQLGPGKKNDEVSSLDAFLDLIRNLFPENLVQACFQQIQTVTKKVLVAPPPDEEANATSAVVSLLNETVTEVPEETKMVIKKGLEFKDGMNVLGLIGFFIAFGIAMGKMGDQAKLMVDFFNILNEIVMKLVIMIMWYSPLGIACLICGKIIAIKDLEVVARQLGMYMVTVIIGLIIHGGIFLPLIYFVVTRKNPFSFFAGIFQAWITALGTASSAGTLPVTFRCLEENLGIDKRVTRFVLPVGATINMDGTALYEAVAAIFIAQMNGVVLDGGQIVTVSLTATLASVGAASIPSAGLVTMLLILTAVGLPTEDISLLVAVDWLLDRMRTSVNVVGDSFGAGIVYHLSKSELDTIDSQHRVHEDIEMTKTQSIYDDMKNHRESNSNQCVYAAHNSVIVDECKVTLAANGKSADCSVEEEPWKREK
UniProt Q9UKV5: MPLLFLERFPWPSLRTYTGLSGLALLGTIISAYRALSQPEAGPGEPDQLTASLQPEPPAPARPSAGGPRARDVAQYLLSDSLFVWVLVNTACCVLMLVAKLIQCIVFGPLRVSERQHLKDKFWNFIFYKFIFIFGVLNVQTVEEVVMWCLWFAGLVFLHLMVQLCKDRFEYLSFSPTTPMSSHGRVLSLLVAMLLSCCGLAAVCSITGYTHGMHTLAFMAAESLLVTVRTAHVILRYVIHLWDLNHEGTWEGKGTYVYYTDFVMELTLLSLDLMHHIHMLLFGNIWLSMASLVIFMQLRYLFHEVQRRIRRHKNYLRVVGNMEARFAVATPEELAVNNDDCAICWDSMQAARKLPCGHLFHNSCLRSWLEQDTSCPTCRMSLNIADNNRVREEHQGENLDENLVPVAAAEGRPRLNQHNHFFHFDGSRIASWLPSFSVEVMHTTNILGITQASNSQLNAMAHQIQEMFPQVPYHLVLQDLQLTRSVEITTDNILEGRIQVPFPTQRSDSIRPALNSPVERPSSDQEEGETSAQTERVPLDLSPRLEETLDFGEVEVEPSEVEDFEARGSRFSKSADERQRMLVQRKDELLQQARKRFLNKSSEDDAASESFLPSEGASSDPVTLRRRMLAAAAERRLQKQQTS

Results are given in words; binding and its absence hold for the method and conditions named. Binding seen in cells or lysates may run through a third protein. These calls come from enrichment with a bait or labelling near it, and not all partners need be listed.

As to “AMFR (E3 ubiquitin ligase AMFR), found by MS with EAAT2-FLAG (from UniProt Q9UKV5 1-643) (enzyme)”, the binding entry was “binds”.

For the origin of these results see article PMC9462477.
